Results reported in PubChem BioAssay AID624246 (National Center for Advancing Translational Sciences (NCATS), 2012).
The campaign covered roughly 370,000 compounds. About 100 (0.027%) were called active. The shares of active, inactive and inconclusive entries below differ from those in the screen. Calls come from the whole dose curve; as a rule, active = well fitted inhibition curve with a large enough effect in the polarisation, with a control signal flat; inconclusive = small, poorly fitted or top-dose-only effect, or effect the other way, or a change in a side signal; inactive = no such curve, though single readings can be large or run the other way; the % refers to the polarisation. Potencies beside an inconclusive call are fits to weak or partial responses and may not hold up. “Side channel” marks fits to a control or component signal instead of the main read-out.

Amino acid sequences for entries named in this document (tags omitted). A change or cut given only in a name is not applied to a line headed by its entry.
UniProt P11308: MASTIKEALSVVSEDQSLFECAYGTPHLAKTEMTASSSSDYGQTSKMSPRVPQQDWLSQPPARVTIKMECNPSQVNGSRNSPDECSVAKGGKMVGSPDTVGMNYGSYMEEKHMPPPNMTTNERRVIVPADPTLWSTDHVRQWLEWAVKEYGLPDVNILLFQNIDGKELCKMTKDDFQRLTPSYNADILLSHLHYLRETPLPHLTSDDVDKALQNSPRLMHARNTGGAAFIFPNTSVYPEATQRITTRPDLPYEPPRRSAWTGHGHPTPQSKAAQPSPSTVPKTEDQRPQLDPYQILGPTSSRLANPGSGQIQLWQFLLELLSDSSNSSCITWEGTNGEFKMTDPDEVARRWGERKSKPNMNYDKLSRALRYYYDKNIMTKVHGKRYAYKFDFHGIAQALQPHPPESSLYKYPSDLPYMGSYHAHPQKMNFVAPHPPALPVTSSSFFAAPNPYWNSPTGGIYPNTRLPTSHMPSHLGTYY

Each compound was assayed against Transcriptional regulator ERG (Homo sapiens) (UniProt P11308) (assay: qHTS for Small Molecule Inhibitors of the ERG Ets/DNA interaction). Settings: fluorescence polarization, His-ERG Ets domain / labelled DNA; FP activity, negative = inhibition: at 76.9 µM (top of the series).
Summary of the method: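 His-tagged ERG Ets domain (1 uM in the protein solution; 300mM KCl, 50mM Tris-HCl, 1mM EDTA, 1mM DTT, pH 7.5) received compound, then a probe mix of 5 nM fluorescein-DNA and 100nM Texas-615-DNA. Fluorescence polarization was read for both dyes.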
Potency is the fitted concentration of half-maximal effect.
Throughout, for FP activity, negative = inhibition: % of control where 0% means no effect.

With `C=CCn1cccc(C(=O)Nc2cc(OC)c(OC)c(OC)c2)c1=O` as the compound, how does the Potency read?
Its Potency is inconclusive: 12.6 µM [inhibitor, partial curve].

How did the Potency turn out when `O=C(NC1CCCCCCC1)c1ccc(F)c(S(=O)(=O)N2CCOCC2)c1` was run?
Its Potency is inconclusive: 1.58 µM [inhibitor, full curve, poor fit].

`CCN1CCN(C(=O)Cn2ncc3ccsc3c2=O)CC1` was tested. Which Potency did it give?
The Potency was inconclusive: 0.794 µM [inhibitor, full curve, poor fit].

How did the “FP activity, negative = inhibition” value turn out when `CCN(C(=O)COC(=O)c1cccnc1)c1cccc2ccccc12` was run?
Its value is inactive: -0.317%.

`O=C(Nc1cccc2[nH]ncc12)NS(=O)(=O)c1ccccc1` was tested. Which Potency did it give?
The Potency was inconclusive: 6.31 µM [inhibitor, partial curve, poor fit].

For `CC(=O)Nc1ccc(Nc2nc(C)c([N+](=O)[O-])c(Nc3ccccc3)n2)cc1`, which Potency is on record?
The Potency was inconclusive: 22.4 µM [quencher, side channel, partial curve, poor fit].

How did the Potency turn out when `COc1ccc(C2(C(=O)Nc3ccc(OC)cc3OC)CCCC2)cc1` was run?
The Potency was inconclusive: 50.1 µM [inhibitor, partial curve, poor fit].

For `NC(=O)C1CCN(C(=O)CN2C(=O)c3ccccc3S2(=O)=O)CC1`, which “FP activity, negative = inhibition” value is on record?
Its value is inactive: 0.796%.

With `Cn1c(=O)c(NCCc2ccccc2)c2c3c(cccc31)C(=O)c1ccccc1-2` as the compound, how does the Potency read?
Its Potency is inconclusive: 35.5 µM [fluorescent, side channel, partial curve].

How did the Potency turn out when `O=C1/C(=N\S(=O)(=O)c2cccs2)C([n+]2cccc(Cc3ccccc3)c2)=C([O-])c2ccccc21` was run?
Its Potency is inconclusive: 79.4 µM [inhibitor, single point].

Which Potency does the source give for `Cc1ccc(NC(=O)C2CCN(S(=O)(=O)c3cccc(C(F)(F)F)c3)CC2)nc1` here?
Its Potency is inconclusive: 3.55 µM [inhibitor, partial curve, poor fit].

For `CC(C#N)(NC(=O)CN1CCN(S(=O)(=O)c2ccccc2C#N)CC1)C1CC1` (stereo not given), which Potency is on record?
Its Potency is inconclusive: 11.2 µM [inhibitor, single point].

How did the Potency turn out when `CCOC(=O)CCC(=O)NCc1ccc2c(c1)cc(C)n2C` was run?
The Potency was inconclusive: 39.8 µM [inhibitor, partial curve, poor fit].

Which Potency does the source give for `CSc1ccccc1NC(=O)CN(C)C(=O)/C=C/c1ccccc1` here?
Its Potency is inconclusive: 5.62 µM [inhibitor, partial curve, poor fit].

How did the Potency turn out when `CSC(=NC#N)N1CCN(C(=NC#N)SC)CC1` was run?
The Potency was inconclusive: 44.7 µM [inhibitor, single point].

For `COC(=O)C(=O)/C=C(\O)c1ccc(C)cc1`, which Potency is on record?
The Potency was inconclusive: 11.2 µM [inhibitor, single point].

With `O=C(N/N=C\c1ccc(Cl)s1)c1ccc(Cn2cccn2)o1` as the compound, how does the “FP activity, negative = inhibition” value read?
Its value is inactive: -0.529%.

For `CCN(C(=O)C(Cc1ccccc1)NS(=O)(=O)c1cccc2nsnc12)c1ccccc1` (stereo not given), which Potency is on record?
Its Potency is inconclusive: 50.1 µM [quencher, side channel, single point].

For `CC1(C)C(=O)N(CCN2CCC(C(=O)c3ccc(F)cc3)CC2)c2ccccc21`, which Potency is on record?
Its Potency is inconclusive: 11.2 µM [inhibitor, single point].

Which Potency does the source give for `Cc1ccc(-c2noc(C3CCCN(C(=O)c4cccc([N+](=O)[O-])c4)C3)n2)o1` (stereo not given) here?
The Potency was inconclusive: 25.1 µM [inhibitor, single point].

For `C=CCc1cccc2cc(C(=O)Nc3ccc(S(=O)(=O)Nc4nnc(CC)s4)cc3)c(=O)oc12`, which “FP activity, negative = inhibition” value is on record?
Its value is inactive: -11.7%.

`CCN1CCN(c2cc(C)c3cc(NC(=O)/C=C/c4cccc(OC)c4OC)ccc3n2)CC1` was tested. Which Potency did it give?
Its Potency is inconclusive: 20 µM [quencher, side channel, partial curve, poor fit].

With `O=C(COc1ccccc1[N+](=O)[O-])N1CCCc2ccccc21` as the compound, how does the Potency read?
The Potency was inconclusive: 3.16 µM [inhibitor, partial curve, poor fit].

Which Potency does the source give for `CC(=O)N1CCC(C(=O)Nc2nc(-c3ccccc3)ns2)CC1` here?
Its Potency is inconclusive: 2.82 µM [fluorescent, side channel, full curve, poor fit].

With `O=C(C[C@H]1C[C@H](C(=O)N2CCOCC2)[C@@]2(CCC3CCCC3)c3[nH]c4cc(-c5ccco5)ccc4c3CCN2C1=O)NCc1cccc(C(F)(F)F)c1` as the compound, how does the “FP activity, negative = inhibition” value read?
Its value is inactive: 6.63%.

For `CCOc1ccc(NC(=O)NCc2ccco2)cc1`, which Potency is on record?
Its Potency is inconclusive: 20 µM [inhibitor, partial curve, poor fit].

With `COc1ccc(NC(=O)CSc2nc(-c3cc(OC)c(OC)c(OC)c3)[nH]c2-c2ccc(F)cc2)cc1` as the compound, how does the Potency read?
Its Potency is inconclusive: 14.1 µM [quencher, side channel, partial curve].

Which Potency does the source give for `CCOC(=O)c1c(NC(=O)CSc2nnc(-c3ccc(Cl)cc3)o2)sc2c1CCC2` here?
The Potency was inconclusive: 0.891 µM [inhibitor, full curve, poor fit].

`CN(C(=O)c1ccncc1)C1CCS(=O)(=O)C1` (stereo not given) was tested. Which Potency did it give?
Its Potency is inconclusive: 17.8 µM [inhibitor, partial curve, poor fit].

How did the Potency turn out when `Cc1cc2cc(CNC(=O)c3ccc(Br)o3)ccc2[nH]1` was run?
The Potency was inconclusive: 14.1 µM [inhibitor, partial curve, poor fit].

For `NC(=S)c1cc2ccc(O)cc2oc1=O`, which Potency is on record?
Its Potency is inconclusive: 25.1 µM [inhibitor, partial curve, poor fit].

For `Cn1ccnc1C(=O)c1ccc(NN)c([N+](=O)[O-])c1`, which Potency is on record?
Its Potency is inconclusive: 7.08 µM [quencher, side channel, single point].

For `Cc1ccc(C)c(Cn2c(O)c(N=NC(=S)Nc3ccccc3F)c3ccccc32)c1`, which “FP activity, negative = inhibition” value is on record?
The value was inactive: 7.43%.

How did the Potency turn out when `COc1ccc(C)cc1S(=O)(=O)Nc1cccc(C)c1` was run?
The Potency was inconclusive: 50.1 µM [inhibitor, single point].

With `COc1ccc(-c2nc3n(n2)C(c2ccccc2OC)C(C(=O)Nc2cccnc2)=C(C)N3)cc1` (stereo not given) as the compound, how does the Potency read?
Its Potency is inconclusive: 31.6 µM [inhibitor, partial curve, poor fit].

How did the “FP activity, negative = inhibition” value turn out when `COC(=O)c1cnc(N2CCN(c3ccc(OC)cc3)CC2)c2ccccc12` was run?
The value was inactive: -6.74%.

For `CC1=Nc2ccccc2/C1=C/c1nc(-c2ccc(C)s2)oc1O`, which Potency is on record?
Its Potency is inconclusive: 31.6 µM [inhibitor, single point].

How did the Potency turn out when `CN(C)S(=O)(=O)c1ccc(C(=O)OCC(=O)NC(=O)NC2CCCC2)cc1` was run?
The Potency was inconclusive: 5.01 µM [inhibitor, single point].

For `COC(=O)[C@H](Cc1ccccc1)NC(=O)C1(OC(C)=O)CC(OC(C)=O)C(OC(C)=O)C(OC(C)=O)C1` (stereo not given in full), which Potency is on record?
The Potency was inconclusive: 28.2 µM [inhibitor, partial curve, poor fit].

With `Cc1cc(C)c(NC(=O)CN)c(C)c1` as the compound, how does the Potency read?
The Potency was inconclusive: 28.2 µM [inhibitor, partial curve, poor fit].

Which Potency does the source give for `Clc1ccc2nc(-c3ccc(N4CCOCC4)cc3)c(Nc3ccccc3)n2c1` here?
The Potency was inconclusive: 5.62 µM [quencher, side channel, partial curve, poor fit].

`Cc1c(Cl)cccc1NC(=S)NCc1ccccc1Cl` was tested. Which Potency did it give?
The Potency was inconclusive: 50.1 µM [quencher, side channel, single point].

With `Cc1cc(=O)oc2cc(NC(=O)CC3(CC(=O)O)CCCC3)ccc12` as the compound, how does the Potency read?
The Potency was inconclusive: 28.2 µM [quencher, side channel, partial curve, poor fit].

How did the Potency turn out when `Cc1c(C(=O)NCc2cccc(Cl)c2)sc2nc3n(c(=O)c12)CCCC3` was run?
Its Potency is inconclusive: 1.58 µM [quencher, side channel, full curve].

With `O=C(CBr)Nc1c2c(nn1-c1ccccc1)CSC2` as the compound, how does the Potency read?
Its Potency is inconclusive: 7.08 µM [inhibitor, single point].

`COc1ccc(-c2ccc(SCC(=O)NCC3CCCO3)nn2)cc1OC` (stereo not given) was tested. Which Potency did it give?
The Potency was inconclusive: 50.1 µM [inhibitor, single point].

Which Potency does the source give for `COC(=O)C(C)Sc1ccc2nnc(CCNS(=O)(=O)c3ccc(C)cc3)n2n1` (stereo not given) here?
The Potency was inconclusive: 50.1 µM [inhibitor, partial curve, poor fit].

With `COCCn1c(SCC(=O)Nc2ccccc2C)nc2c(oc3ccccc32)c1=O` as the compound, how does the Potency read?
The Potency was inconclusive: 10 µM [quencher, side channel, single point].

`c1ccc2[nH]c(SCC3CCCCO3)nc2c1` (stereo not given) was tested. Which Potency did it give?
Its Potency is inconclusive: 5.01 µM [quencher, side channel, partial curve, poor fit].

With `COc1ccc(C2=NN(c3nc4ccccc4s3)C(=O)/C2=C\N(C)C)cc1` as the compound, how does the “FP activity, negative = inhibition” value read?
Its value is inactive: 10.1%.

For `CCOC(=O)[C@@H]1[C@H]2COc3cc(OC)ccc3[C@H]2N2C(=O)N(c3ccc(C(F)(F)F)cc3)C(=O)[C@]12C`, which “FP activity, negative = inhibition” value is on record?
Its value is inactive: 3.24%.

How did the Potency turn out when `CC1=CC(=O)C(C(C)C)=C/C1=C(\c1cc(C(C)C)c(OP(=O)(O)O)cc1C)c1ccccc1C(=O)O` was run?
The Potency was inconclusive: 35.5 µM [inhibitor, single point].

How did the “FP activity, negative = inhibition” value turn out when `Cc1ccccc1CNCc1c(C(=O)O)c(C)n(Cc2ccc(F)cc2Cl)c1C` was run?
Its value is inactive: 2.06%.

With `O=C(c1cc2ncc(Br)cn2n1)N1CCN(C(=O)c2ccco2)CC1` as the compound, how does the “FP activity, negative = inhibition” value read?
The value was inactive: 8.57%.

For `O=C(NNc1ccccn1)C(c1ccccc1)c1ccccc1`, which Potency is on record?
Its Potency is inconclusive: 10 µM [quencher, side channel, single point].

How did the Potency turn out when `CC1CCN(C(=O)COC(=O)c2ccc(=O)n(Cc3ccccc3)n2)CC1` was run?
The Potency was inconclusive: 56.2 µM [inhibitor, single point].

For `O=C(NCC(c1cccnc1)N1CCc2ccccc21)c1ccc(F)cc1` (stereo not given), which “FP activity, negative = inhibition” value is on record?
The value was inactive: 2.36%.

`COc1ccc(CCC(=O)NNC(=O)c2cc(Cl)ccc2OC)cc1` was tested. Which Potency did it give?
The Potency was inconclusive: 25.1 µM [inhibitor, partial curve, poor fit].

Which “FP activity, negative = inhibition” value does the source give for `Oc1c(Br)cc(Br)cc1CNc1cnc2ccccc2c1` here?
The value was inactive: 7.64%.

Which Potency does the source give for `Nc1nc(Nc2ccccc2)nc2c1ncn2[C@@H]1O[C@H](CO)[C@@H](O)[C@H]1O` here?
Its Potency is inconclusive: 3.16 µM [inhibitor, partial curve, poor fit].
